Test results from patent US20050019372A1, “Modified-fat nutritional products useful preventing or treating obesity” (priority 2001, published 2005).
“Also recorded” adds a separate entry of the source. At least one compound was matched to its structure with a doubt left.

Columns and labels:
[1] = system: 3T3-L1 preadipocytes; assay: Differentiation with hormonal inducers, oil-red-O lipid staining; assay type: cell-based; conditions: for Lipid accretion (oil-red-O): 100 uM oleate or 1 mM octanoate alone
[2] = system: adipocyte metabolic genes and their transcription factors; assay: Northern/Western blot of adipogenic genes and transcription factors; assay type: cell-based
[3] = system: HepG2 cells; assay: 13C-NMR incorporation of [1-13C]octanoate into cellular lipids of HepG2 cells; assay type: cell-based, human; conditions: 24 h incubation
[4] = system: fat cells; assay: Oleate storage and glucose conversion to the glycerol backbone in TG; assay type: cell-based
[5] = system: rat epididymal preadipocytes; assay: Fatty acid composition of stored lipids in preadipocytes exposed to TPN plus fatty acid; assay type: cell-based; conditions: 1 mM fatty acid, soybean-based TPN, 24 hr
[6] = system: 3T3-L1 adipocytes; assay: Lipolysis and HSL mRNA in adipocytes treated with octanoate; assay type: cell-based; conditions: 1 mM octanoate for 4 days
[7] = system: 3T3-L1 fat cells; assay: Basal lipolysis and turnover of esterified fatty acids (glycerol release, NMR, GLC); assay type: cell-based; conditions: for Released fatty acid detected in incubation medium: after incubation with DMEM
Protocol: Measurement of basal lipolysis. […] Control cultures were terminated at this time, and cells were homogenated for TG and DNA analysis. After aliquots were taken for these analyses, cellular lipids were extracted for NMR and GLC analysis. Parallel cultures were washed three times with PBS solution and incubated with serum-free DMEM containing 1% BSA, conditions that favour basal lipolysis. At the end of the incubation, media were aspirated and assayed for glycerol (Sigma procedure no. 337A [27]), and the cells were harvested for analysis as described above.
(§1) Quantification of ^13C label incorporation into cellular TG from the NMR peak intensity. The ^13C-NMR spectra were obtained at 125 MHz on a Bruker DMX-500 spectrometer with a 5-mm triple resonance probe (Bilerica, Mass., U.S.A.). Other details have been described in our previous reports. The absolute intensities of ^13C═O signals were measured by reference to an internal standard. […] Therefore, the signal intensity from direct incorporation of [1-^13C]octanoate was obtained by subtracting the background signal from control.
Methylation of TG and GLC analysis of fatty acyl composition. The lipid components of cell extracts were separated by TLC (hexane/ethyl ether/acetic acid, 70:30:1). Methylation was performed by incubation in BF3-methanol solution (14%, v/v, BF3 in methanol) at 60° C. for 30 min. The fatty acid methyl ester was extracted into a hexane solution. The hexane solution was dried with anhydrous sodium sulphate. To avoid the evaporation of methyl octanoate, the hexane solution was used directly for GLC study without further condensation. GLC analysis was performed on a Shimuzu 14A gas chromatograph with a Supelco SP™-2380 capillary column with an initial oven temperature of 150° C., final temperature of 240° C., heating rate of 4° C./min, injector temperature of 220° C. and detector temperature of 240° C. Carrier gas (He) was at 50 kPa, make-up carrier gas (He) at 100 kPa, hydrogen gas at 55 kPa and compressed air at 50 kPa. The sample was injected in 1-1.5 μl with splitting rate of 1:25.

[8] = system: 3T3-L1 adipocytes; assay: 13C-NMR incorporation of [1-13C]FFA into cellular TG; assay type: cell-based
Protocol: Incubation with [1-^13C]FFA. […] At termination, cells were washed three times with an ice-cold solution (pH 7.4) containing sucrose (250 mM), Tris (10 mM) and 2-mercaptoethanol (1 mM), scraped into the above solution containing additional EDTA (0.2 mM) and homogenized. Aliquots of the homogenate were stored at −80° C. for DNA and TG analysis. Aliquots for glycerol-3-phosphate dehydrogenase (G3PD) analysis were centrifuged at 44000 g for 20 min and the supernatants were stored at −80° C. until analysis. The homogenates were then extracted for lipids for NMR studies as described previously.
as §1, with “For cells incubated with [1-^13C]octanoate,” for “Therefore,”, “signals” for “signal intensity”, “were less intense than” for “was obtained by subtracting”, “C═O signals” for “background signal”, “unlabelled TG (FIG. 1B; signals from unlabelled saturated acyl chains overlapped those of esterified [1-^13C]octanoate, but were generally 30-40% of their unsaturated counterparts in control cultures). […]” for “control.”

[9] = system: mature adipocytes; assay: [1-14C]precursor incorporation into TG (lipogenesis) in mature adipocytes; assay type: cell-based; conditions: octanoate added to mature adipocytes
[10] = system: HepG2 cells (human hepatoma cells); assay: Cellular TG and [1,2-14C]acetate incorporation into lipids with DHA; assay type: cell-based
[11] = day 6 post differentiation induction
[12] = genes and transcription factors altered by octanoate

| SMILES | Lipid accretion (oil-red-O) at 2 mM or 3 mM octanoate ([1]; day 6, data not shown) | Lipid accumulation (oil-red-O) with 100 uM oleate and 1 mM octanoate [1, 11] | Lipid accretion (oil-red-O) [1, 11] | Expression of PPARγ and C/EBPα at mRNA and protein levels ([2]; differentiating 3T3-L1 preadipocytes) | Down-regulated [2, 12] | Up-regulated [2, 12] | Expression of PPARγ and C/EBPα ([2]; octanoate added to mature adipocytes) | Direct esterification of [1-13C]octanoate to TG [3] | TG synthesis rate ([1-14C]glucose into TG-glycerol backbone) ([4]; compared with cells exposed to oleate) | Incorporation of [1-14C]oleate isotope into cellular lipids in presence of unlabeled octanoate ([4]; increasing octanoate concentration) | Percentage of linoleate and linolenate in stored fat [5] | mRNA level of HSL [6] | Lipolysis ([6]; basal and stimulated (isoproterenol, norepinephrine, forskolin)) | Glycerol release ([7]; after 48 and 96 h in lipid-free DMEM (1% BSA), vs oleate pre-treated cells) | Released fatty acid detected in incubation medium [7] | Incorporation of [1-13C]octanoate into lipid with respect to octanoate concentration ([8]; 1-5 mM, 24 h, NMR) | Incorporation of [1-13C]octanoate in undifferentiated cells ([8]; undifferentiated cells) | Lipogenesis [9] | Incorporation of [1,2-14C]acetate into cellular and secreted lipids ([10]; 5% DHA added with octanoate, all three major lipid classes) | Cellular triglycerides accumulated ([10]; 180 uM oleate vs 380 uM octanoate, each with 20 uM DHA) |
| --- | --- | --- | --- | --- | --- | --- | --- | --- | --- | --- | --- | --- | --- | --- | --- | --- | --- | --- | --- | --- |
| CCCCCCCC(=O)O [Octanoate, octanoate] | further reduced | reversed the effects of oleate | minimal | largely suppressed | PPARγ and C/EBPα and SREBP-1c and GPDH and Leptin and HSL and ALBP | MCAD,; also recorded: CPT-1 | down-regulated | not detected | lower TG synthesis rate | decreased in proportion to the exogenous octanoate concentration | increased | reduction | reduced basal and stimulated lipolysis | released more glycerol | no detectable octanoate | did not vary significantly | nearly undetectable | reduced lipogenesis |  |  |
| CC/C=C\C/C=C\C/C=C\C/C=C\C/C=C\C/C=C\CCC(=O)O [DHA, docosahexaenoic acid] |  |  |  |  |  |  |  |  |  |  |  |  |  |  |  |  |  |  | significantly reduced |  |
| CCCCCCCC/C=C\CCCCCCCC(=O)O [Oleate, oleate, reference compound] |  |  | significantly increased |  |  |  |  |  |  |  | large decrease |  |  |  | only an insignificant amount |  |  |  |  | much more cellular triglycerides |
